# Assay results published in PubChem BioAssay AID493014 (National Center for Advancing Translational Sciences (NCATS), 2011).
# The list shows a part of the results. Further columns of the screen follow, without active or inactive calls. Compounds called inactive in the main read-out are mostly missing here. Words in brackets tell the shape of the fitted curve; partial curves, single points and poor fits give uncertain potencies.
# Test: qHTS Assay to Find Inhibitors of Chronic Active B-Cell Receptor Signaling
# Details: ABC-DLBCL IkBa-CBG/CBR reporter, luminescence ratio (green luciferase fused to IkBa over red control in TMD8 lymphoma cells), 4 h
# Outline: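 Concentration-response series (up to 46 uM) were applied to TMD8 dual-reporter cells for 4 h at 37C with doxycycline. Green/red ratio, after filter-overlap correction, defined %Activity; red signal alone was normalised to basal cells and zero luminescence.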
# [1] = measured here: CBR red luminescence, cell number
# [2] = measured here: IkBa-CBG green luminescence
Compound,AC50 [1],AC50 [2]
CC1(C)Cc2nc3nc(SCC(=O)NCc4ccccc4)n(-c4ccccc4)c(=O)c3cc2CO1,"35.5 µM [falling, single point]",
CC(C)CN(C(=O)c1ccc(C(F)(F)F)cc1)c1c(N)n(CC(C)C)c(=O)[nH]c1=O,"0.631 µM [falling, partial curve, poor fit]",
COCc1c(C(=O)N/N=C/c2ccncc2)nnn1-c1nonc1N,"28.2 µM [rising, single point]",
CCOC(=O)CN(C(=O)CSc1nnc2c(n1)[nH]c1ccccc12)c1ccccc1,"0.501 µM [falling, partial curve, poor fit]",
CCOC(=O)Cn1nc(C)c(NC(=O)c2ccc(Br)o2)c1C,"11.2 µM [rising, partial curve, poor fit]",
COc1ccc(OC)c2sc(NC(=O)c3ccc(Br)s3)nc12,"1.3 µM [falling, partial curve, poor fit]",
O=c1c2ccccc2nc(SCc2cn3ccsc3n2)n1-c1ccccc1F,"0.0326 µM [rising, full curve, poor fit]",
CC(C)NC(=O)c1ccccc1NC(=O)CS(=O)(=O)Cc1ccccc1,"18.4 µM [falling, single point]",
CCOC(=O)c1cccc(S(=O)(=O)N(CCO)Cc2cc3cc(OC)ccc3[nH]c2=O)c1,"7.31 µM [falling, single point]",
Cc1ccc(-n2nnc3c(SCC(=O)NCC4CCCO4)ncnc32)cc1 (centres undefined),"4.61 µM [falling, partial curve]",
Nc1nc(SCC(=O)Nc2ccccc2Sc2ccccc2)n[nH]1,"1.64 µM [falling, partial curve, poor fit]",
O=C(/C=C/c1ccc(F)cc1)Nc1cccc(S(=O)(=O)Nc2cccc(C(F)(F)F)c2)c1,"29.1 µM [rising, single point]",
C(=N\N1CCN(c2ccccn2)CC1)/C1=C(N2CCOCC2)C(=C/c2ccccc2)/CC1,"35.5 µM [rising, single point]",
Cc1ccc(C)c(N2CCN(C(=S)Nc3ccc4nc(N5CCN(C)CC5)cc(C)c4c3)CC2)c1,"12.6 µM [falling, single point]",
O=C(N[C@H]1C/C=C\C[C@@H](CC(=O)N(CCO)Cc2ccccc2)C(=O)NC[C@H](c2ccccc2)OC1=O)OCC1c2ccccc2-c2ccccc21,"20.6 µM [falling, single point]",
COCCn1c(C)cc(C(=O)COC(=O)CNC(=O)c2ccccc2)c1C,"25.9 µM [rising, single point]",
O=C(CSc1nc2ccccc2c(=O)n1-c1ccc(OC(F)F)cc1)NC1CC1,"20.6 µM [falling, single point]",
Cc1ccc(N2C(=O)CC(c3c[nH]c4ccccc34)C2=O)cc1 (centres undefined),"0.501 µM [falling, full curve, poor fit]",
CC(C)COc1ccc(C(=O)Nc2ncn[nH]2)cc1,"17.8 µM [falling, partial curve, poor fit]",

# Random excerpt: three records from the list.
Compound,AC50 [1],AC50 [2]
Nc1nc(SCC(=O)Nc2ccccc2Sc2ccccc2)n[nH]1,"1.64 µM [falling, partial curve, poor fit]",
CC1(C)Cc2nc3nc(SCC(=O)NCc4ccccc4)n(-c4ccccc4)c(=O)c3cc2CO1,"35.5 µM [falling, single point]",
Cc1ccc(-n2nnc3c(SCC(=O)NCC4CCCO4)ncnc32)cc1 (centres undefined),"4.61 µM [falling, partial curve]",

# Next part.

Compound,AC50 [1],AC50 [2]
COc1cccc(CNC(=O)CCC(=O)n2ncc3cc(C)ccc32)c1OC,"2.82 µM [rising, partial curve, poor fit]",
O=C(CN1C(=O)C2CCCCC2C1=O)Nc1ccc(S(=O)(=O)Nc2ncccn2)cc1 (centres undefined),"0.708 µM [falling, full curve, poor fit]",
O=C(Nc1ccccc1O)c1ccc(NS(=O)(=O)c2cccc3cccnc23)cc1,"0.0891 µM [falling, full curve, poor fit]","15.8 µM [falling, partial curve, poor fit]"
CCc1cccc(CC)c1N(COC)C(=O)Cn1c(CO)nc2ccccc21,"20 µM [falling, partial curve, poor fit]",
COc1ccc(NC(=O)C2CCN(C(=O)Nc3ccccc3)CC2)cc1S(=O)(=O)N(C)C,"2.31 µM [rising, full curve, poor fit]",
Cc1noc(C)c1COC(=O)c1cccc(S(=O)(=O)N2CCOCC2)c1,"29.1 µM [rising, single point]",
Cc1ccc(NS(=O)(=O)c2cc(C(=O)NCCSC3CCCCC3)ccc2C)cc1,"29.1 µM [falling, single point]",
CN(C)C(=O)C1C2NC(=S)N(c3ccc(Cl)cc3)C1(C)Oc1ccc(Cl)cc12 (centres undefined),"35.5 µM [falling, single point]",
c1ccc(-c2cn3nc(-c4ccccc4)cnc3n2)cc1,"2.06 µM [falling, partial curve]",
c1ccc(CCn2nnnc2C(c2cccnc2)N2CCN(c3nc4ccccc4s3)CC2)cc1 (centres undefined),"14.1 µM [falling, partial curve, poor fit]",
Cc1cccc(NC(=O)CSc2nc(C3CC3)nc3ccccc23)c1,"2.24 µM [falling, partial curve]",
Cc1nnc(SCC(=O)NCc2ccco2)[nH]c1=O,"29.1 µM [falling, single point]",
C[C@H](CO)N1C[C@H](C)[C@@H](CN(C)Cc2ccccc2)Oc2c(NC(=O)Cc3ccccc3)cccc2C1=O,"16.4 µM [falling, partial curve]",
CCNC(=O)NC(=O)C(C)Sc1ncc(C(F)(F)F)cc1Cl (centres undefined),"14.1 µM [rising, partial curve, poor fit]",
COc1ccc(/C=N/OCC(=O)N(Cc2ccccc2)c2ccccc2C(=O)O)cc1,,"18.4 µM [rising, partial curve, poor fit]"
O=[N+]([O-])c1ccc(/C=C/c2ccncc2)cc1,"10 µM [rising, partial curve]",
Cc1ccc(C(=O)Nc2ccccc2N2CCCC2)cc1,"31.6 µM [rising, single point]",
COc1ccccc1-c1cc(C(=O)Nc2cc(C)n(Cc3ccc(Cl)cc3)n2)no1,"0.501 µM [falling, full curve, poor fit]",
c1ccc(CCN=C2CCCc3c2[nH]c2ccccc32)cc1,"35.5 µM [falling, single point]",
